Test results: patent US20240287165A1 (GENERAL HOSPITAL, published 2024)
No constants are given. Whether binding was seen depends on the method and setting. Some binding calls cover weakened binding; strength is not graded here.

The chains behind the UniProt entries cited, without tags or fusion partners. Where a name states a change or a piece, a line headed by the entry shows the natural chain unless it says otherwise.
UniProt P02649: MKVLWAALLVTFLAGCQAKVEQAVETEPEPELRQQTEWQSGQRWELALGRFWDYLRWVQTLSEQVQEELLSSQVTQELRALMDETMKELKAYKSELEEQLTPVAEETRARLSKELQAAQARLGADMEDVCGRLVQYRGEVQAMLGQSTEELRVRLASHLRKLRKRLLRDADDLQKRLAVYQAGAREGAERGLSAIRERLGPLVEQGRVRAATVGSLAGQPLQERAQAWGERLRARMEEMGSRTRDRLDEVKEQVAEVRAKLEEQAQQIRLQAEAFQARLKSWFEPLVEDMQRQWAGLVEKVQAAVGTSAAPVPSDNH

Experiments:
[1] = target: T1, wild type ApoE peptide KLH-…-CONH2 (human); assay: ELISA of the monoclonal 25F1-2 antibody purified from cloned hybridoma, O.D. 450 nm against antibody concentration
T1 sequence (peptide, C-terminal amide (CONH2); printed with KLH on the added N-terminal cysteine): CTEELRVRLASHLRK

[2] = target: C-terminal wild type ApoE3 recombinant protein (human) (UniProt P02649); assay: ELISA screening (FIG. 33)
[3] = target: C-terminal wild type ApoE3 recombinant protein (human) (UniProt P02649); assay: ELISA on His-captured ApoE proteins

- binding [1]: no binding (tested: 1000 ng/mL)
- binding [2]: binds
- binding [3]: binds
B1: antibody 25F1-2 (antibody, V domains shown)
VH: EVQLQQSGAELVRPGALVKWSCKASGFNIKDYHIHWVKQRPEQGLDWIGWIDPEIDKTLYDPKFQGKARITADTSSNTAYLQLSSLTSEDTAVYYCARGTARASFDYWGQGTTLTVSS
VL: DIVLTQSPASLAVSLGQRATISCKASQSVDYDGDTYMNWYQQKPGQPPKLLIYTASNLESGIPARFSGSGSGTDFTLNIHPVEEVDAATYYCQQSNEDPWTFGGGTKLEIK
notes: also called 25F1-2 antibody serum; monoclonal antibody hybridoma supernatant 25F1-2
